Data: PubChem BioAssay AID743255 (National Center for Advancing Translational Sciences (NCATS), 2014)
About 910 (0.23%) of roughly 390,000 compounds were called active. Inconclusive means that the source gave no clear call. Such entries were picked first, then a sample of the others. The call rests on the fitted dose curve; in most records, active means well fitted inhibition curve with a large enough effect; inconclusive means small, poorly fitted or top-dose-only effect; inactive means no such curve, though single readings can be large or run the other way. Potencies of inconclusive entries are doubtful fits and often do not repeat.

Sequences of proteins named here, by UniProt entry; tags and fusion partners are left off. A change or cut given only in a name is not applied to a line headed by its entry.
UniProt O94782: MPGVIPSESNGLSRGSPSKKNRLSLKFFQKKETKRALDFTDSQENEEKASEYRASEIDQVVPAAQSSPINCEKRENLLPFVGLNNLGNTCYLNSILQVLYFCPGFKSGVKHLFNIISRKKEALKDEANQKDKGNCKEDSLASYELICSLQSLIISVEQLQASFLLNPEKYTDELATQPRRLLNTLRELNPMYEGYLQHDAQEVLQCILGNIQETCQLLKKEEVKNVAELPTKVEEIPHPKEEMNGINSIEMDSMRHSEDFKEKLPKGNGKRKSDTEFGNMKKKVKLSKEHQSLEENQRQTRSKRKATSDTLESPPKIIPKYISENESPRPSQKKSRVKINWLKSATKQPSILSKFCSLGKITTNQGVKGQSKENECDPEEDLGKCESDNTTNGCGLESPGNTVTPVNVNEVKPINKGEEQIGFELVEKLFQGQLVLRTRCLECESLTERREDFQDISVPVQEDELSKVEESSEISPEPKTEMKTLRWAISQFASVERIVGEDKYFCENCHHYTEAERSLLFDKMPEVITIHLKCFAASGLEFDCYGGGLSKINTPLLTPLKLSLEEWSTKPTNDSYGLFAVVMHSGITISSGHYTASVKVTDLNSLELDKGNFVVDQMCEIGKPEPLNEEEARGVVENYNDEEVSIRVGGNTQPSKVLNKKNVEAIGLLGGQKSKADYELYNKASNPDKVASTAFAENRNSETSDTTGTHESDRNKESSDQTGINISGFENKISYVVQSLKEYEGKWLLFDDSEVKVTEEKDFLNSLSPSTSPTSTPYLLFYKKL

Molecular target: Ubiquitin carboxyl-terminal hydrolase 1 (Homo sapiens) (UniProt O94782)
Test: Inhibitors of USP1/UAF1: Primary Screen; further: nearly all actives have a fitted effect of over 60% in size
Conditions: recombinant USP1/UAF1, Ub-Rhodamine cleavage fluorescence; activity change, negative = inhibition: at 57.1 µM (top of the series)
In short: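 In this screen, compounds sit with the deubiquitinase complex (1nM) for 15 min at room temperature before Ub-Rho is added at 150nM final. Fluorescence rise is then followed for 6 reads every 60 seconds.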
On the % scale 0 is the no-effect control and ±100 the full control effect; potency means the concentration at half of the fitted maximal effect.

Activity change, negative = inhibition, inactive:
Cn1cc(-c2ccccc2C(N)=O)c(=O)c2cc(Cl)ccc21 -15.8%
O=C(CSc1nc2ccccc2s1)NCc1cc([N+](=O)[O-])ccc1O 19.7%
CCN(CC)c1ccc(/C=N/NC(=O)Cc2nnc(NC(=O)Nc3ccccc3)s2)cc1 -7.64%
O=C(Cn1cc(/C=N/NC(=O)c2cccc3ccccc23)c2ccccc21)Nc1ccc(F)cc1 -12.1%
CCOC(=O)C1CCN(C(=O)CN2c3ccc(CC)cc3-c3ccccc3S2(=O)=O)CC1 2.22%
COc1ccc(OC)c(S(=O)(=O)Nc2c(C)n(C)n(-c3ccccc3)c2=O)c1 -14.6%
O=C(Nc1ccccc1)NC1(C(=O)NCCCN2CCOCC2)CCCCC1 -7.11%
CCn1c(=S)[nH]c2c(=O)n(C)c(=O)n(C)c21 -17.7%
CC1CN(S(=O)(=O)c2ccc(NC(=O)c3cc(-c4ccccc4O)n[nH]3)cc2)CC(C)O1 (stereo unspecified) -18.8%
O=C(CCNC(=O)c1ccc(Br)cc1)NCCCSc1ccccc1 -6.41%
COc1ccc(OCCSc2ncccn2)cc1 -15.4%
CC(=O)Nc1ccc(Nc2nc(C)c([N+](=O)[O-])c(Nc3ccccc3)n2)cc1 -20.8%
CC[C@@H]1C(c2ccccc2)=NN(c2ccc(Br)cc2)[C@H]1C(=O)N1CCOC1=O -22.9%
O=C(Nc1ccc(N2CCCC2)c(Cl)c1)c1ccc2c(c1)OCCO2 -11.3%
COc1ccc(Nc2nc3ccc(OC)cc3s2)cc1 -11.6%
CC(=C/C(=O)O)/C=C/c1ccc(Cl)o1 -3.23%

Potency, inconclusive:
O=C1/C(=N\S(=O)(=O)c2cccs2)C([n+]2cccc(Cc3ccccc3)c2)=C([O-])c2ccccc21 39.8 µM [inhibitor, partial curve, poor fit]
COc1cccc(N2CCN(C(=O)c3cnn(-c4ccc(C)cc4C)c3C3CCN(C(=O)OC(C)(C)C)CC3)CC2)c1 2 µM [inhibitor, full curve, poor fit]
CC(C)(C)S(=O)(=O)c1cnc2c(S(=O)(=O)c3ccccc3)cnn2c1N 2.51 µM [inhibitor, full curve]
COc1ccc(Br)cc1CNc1ccc(O)cc1 35.5 µM [inhibitor, partial curve, poor fit]
O=C(NCCCO)C12CC3CC(CC(C3)C1)C2 22.4 µM [inhibitor, single point]
COc1ccc(OC)c(-c2c3cc(O)c(=O)cc-3oc3cc(O)c(O)cc23)c1 6.31 µM [inhibitor, partial curve, poor fit]
O=C(COC(=O)C1=COCCO1)Nc1ccc(OC(F)F)cc1 5.01 µM [inhibitor, partial curve]
CCS(=O)(=O)c1ncc(N(Cc2ccc(F)cc2)Cc2ccco2)c(C(=O)Nc2cc(C)ccc2C)n1 0.282 µM [inhibitor, partial curve, poor fit]
C[C@H](Cc1ccccc1)Nc1ncnc2c1ncn2[C@@H]1O[C@H](CO)[C@@H](O)[C@H]1O 15.8 µM [inhibitor, partial curve, poor fit]
CCn1cnc2c1c(=O)n(CC(=O)Nc1cc(C)on1)c(=O)n2Cc1ccccc1 1.26 µM [inhibitor, full curve]
C#CCNC(=O)C1=C[C@H](c2cn(C(C)=O)c3ccccc23)[C@@H](CCCO)[C@H](OCC)O1 0.251 µM [inhibitor, full curve, poor fit]
COC(=O)c1c(NC(=O)Cc2coc3cc(C)ccc23)sc2c1CCCC2 3.55 µM [inhibitor, partial curve]
COc1ccccc1CNC(=O)c1cccn1-c1nnc(N2CCCCC2)s1 0.316 µM [inhibitor, full curve, poor fit]
Cc1ccc(S(=O)(=O)Nc2ccccc2C(O)c2ccccc2)cc1 (stereo unspecified) 2.51 µM [inhibitor, partial curve]
Cc1nnc(NC(=O)CSc2nccn2Cc2ccc(F)cc2)s1 50.1 µM [inhibitor, partial curve, poor fit]
CC(C)(C)OC(=O)N1CCC[C@H]1c1nnc(SCC(=O)Nc2ccc(Br)cc2)o1 4.47 µM [inhibitor, single point]
CN(C)/C=C1\SC(=S)N(c2ccc(Br)cc2)C1=O 28.2 µM [inhibitor, partial curve]
CC(C)(C)OC(=O)NCCCC[C@H](NC(=O)c1[nH]cnc1C(=O)N[C@@H](Cc1ccccc1)C(=O)OC(C)(C)C)C(=O)OC(C)(C)C 44.7 µM [inhibitor, partial curve, poor fit]
O=S(=O)(NCCc1ccccc1)c1ccc(S(=O)(=O)N2CCCCC2)cc1 0.282 µM [inhibitor, full curve, poor fit]
CCCOc1ccc(C(=O)Nc2ccc(NC(=O)c3ccccc3)c(Br)c2)cc1 25.1 µM [inhibitor, single point]
NNC(=O)CN1C(=O)C2(OCCO2)c2ccccc21 0.251 µM [inhibitor, full curve, poor fit]
Cc1cc(C)c(C)c(S(=O)(=O)Nc2ccccc2C(=O)O)c1C 0.251 µM [inhibitor, full curve, poor fit]
Cc1cc(C)nc(SCC(=O)N(C)C)n1 4.47 µM [inhibitor, single point]
C[C@@H](N)C(=O)N[C@H]1CCC2C3CC=C4C[C@@H](O)CC[C@]4(C)C3CC[C@@]21C (stereo partly specified) 0.282 µM [inhibitor, full curve, poor fit]
C#CC[N+](C)(C)CCN1C(=O)C2C(c3ccccc3)C=CC(c3ccccc3)C2C1=O (stereo unspecified) 56.2 µM [inhibitor, partial curve, poor fit]
COc1cc(NC(=O)CSc2nc(-c3ccco3)cc(C(F)(F)F)n2)cc(OC)c1OC 4.47 µM [inhibitor, full curve]
CCN1C(=O)/C(=C/c2nc3ccccc3c(=O)n2-c2ccccc2)c2ccccc21 35.5 µM [inhibitor, partial curve]
Cc1ccc(C(OCC(O)CNC(CO)C(O)c2ccc([N+](=O)[O-])cc2)c2ccccc2)cc1 (stereo unspecified) 100 µM [inhibitor, partial curve, poor fit]
Cc1ccc(-c2nnn3c2nc(NCC(C)c2ccccc2)c2ccccc23)cc1 (stereo unspecified) 22.4 µM [inhibitor, partial curve, poor fit]
Cc1ccc2c(c1)N(CC(=O)NCCc1ccc(Cl)cc1)C(=O)c1cccnc1O2 355 µM [inhibitor, partial curve, poor fit]
COc1ccc(-c2nn(-c3ccccc3)cc2/C=N/Nc2ccc(S(N)(=O)=O)cc2[N+](=O)[O-])cc1OC 3.55 µM [inhibitor, partial curve]
CC(=O)Nc1ccc(NC2=C(Cl)C(=O)c3ccccc3C2=O)cc1 0.251 µM [inhibitor, full curve]
O=C(c1ccc2c(c1)OCO2)N1CCC2(CC1)Oc1ccc(F)cc1C(=O)C21CC(c2cccnc2)=NO1 (stereo unspecified) 50.1 µM [inhibitor, partial curve, poor fit]
CC(=O)Nc1ccc(NC(=O)CSc2nc3ccccc3nc2N2CCCCC2)cc1 0.355 µM [inhibitor, full curve, poor fit]
O=C(Nc1cccc(-c2cn3cccnc3n2)c1)c1cc(Br)ccc1Cl 5.62 µM [inhibitor, single point]
Cc1cc(F)c(F)c(C(=O)N2C(C)CCCC2C)c1Cl (stereo unspecified) 44.7 µM [inhibitor, partial curve, poor fit]
O=C(CN1CCN(c2ccc(F)cc2)CC1)Nc1cc(C(F)(F)F)ccc1Cl 31.6 µM [inhibitor, partial curve]
Cc1cc(OCC(=O)Nc2c(C)n(C)n(-c3ccccc3)c2=O)ccc1[N+](=O)[O-] 31.6 µM [inhibitor, partial curve, poor fit]
COC(=O)c1cc(NC(=O)c2ccccc2)c(=O)oc1C/C=N\OCc1ccc(Cl)cc1Cl 44.7 µM [inhibitor, partial curve, poor fit]
CCN(CC)C(=O)c1[nH]cnc1C(=O)N[C@@H](Cc1ccccc1)C(=O)OC(C)(C)C 39.8 µM [inhibitor, partial curve, poor fit]
CN(C(=O)Cn1nnc2ccccc2c1=O)C1CCCCC1 1.12 µM [inhibitor, partial curve]
Cc1ccc(C)c(NC(=O)n2ncc3cc(Cl)ccc32)c1 31.6 µM [inhibitor, partial curve]
CCCCCc1cc(=O)oc2c(C(CCN3CCCCC3)c3ccc(OC)cc3)c(OC)cc(OC)c12 (stereo unspecified) 44.7 µM [inhibitor, partial curve, poor fit]
N=C(N)SCc1cn(-c2ccccc2)nc1-c1ccc(Br)cc1 44.7 µM [inhibitor, partial curve, poor fit]
O=C(NCCc1ccc(C(F)(F)F)cc1)c1ccc(Cl)nc1 0.316 µM [inhibitor, full curve, poor fit]

For reference, part of the list above.
Potency, inconclusive:
O=C(CN1CCN(c2ccc(F)cc2)CC1)Nc1cc(C(F)(F)F)ccc1Cl 31.6 µM [inhibitor, partial curve]
Cc1cc(OCC(=O)Nc2c(C)n(C)n(-c3ccccc3)c2=O)ccc1[N+](=O)[O-] 31.6 µM [inhibitor, partial curve, poor fit]
COC(=O)c1cc(NC(=O)c2ccccc2)c(=O)oc1C/C=N\OCc1ccc(Cl)cc1Cl 44.7 µM [inhibitor, partial curve, poor fit]
CCN(CC)C(=O)c1[nH]cnc1C(=O)N[C@@H](Cc1ccccc1)C(=O)OC(C)(C)C 39.8 µM [inhibitor, partial curve, poor fit]
